# Source: paper PMC7819943, “Rice protein-binding microarrays: a tool to detect cis-acting elements near promoter regions in rice”
# Protein sequences, listed by entry. Tags and fused reporters are not part of them.
# UniProt Q0JBA9, entry or part of it: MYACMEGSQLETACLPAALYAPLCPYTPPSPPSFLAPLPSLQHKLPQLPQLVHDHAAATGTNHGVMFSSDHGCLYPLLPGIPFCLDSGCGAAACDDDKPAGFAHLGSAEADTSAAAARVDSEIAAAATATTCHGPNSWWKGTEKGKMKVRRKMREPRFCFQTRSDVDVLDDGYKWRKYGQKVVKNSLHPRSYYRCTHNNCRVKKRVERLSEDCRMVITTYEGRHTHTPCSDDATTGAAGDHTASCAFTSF
# The list shows a part of the results.
# Molecular target: OsWRKY34 (Oryza sativa, UniProt Q0JBA9 1-250)
# Assay: protein-binding microarray (RPBM); PBS, 2% BSA, 51.3 ng/ul salmon testes DNA, 50 uM zinc acetate, 200 nM TF, 25 C, 1 h; high values mean tight binding
# Conditions: protein: recombinant; tags: N-terminal polyhistidine and DsRed monomer fusion (pET32a); label: CyDye5-dUTP incorporated in the synthesized complementary strand; 3' TTTTT single-stranded linker to array surface; dsDNA, one strand shown
# In short: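 An Axon 4000B scanner gave the binding signal as per-feature fluorescence intensity in arbitrary units. This followed washing of a custom Agilent array that had been incubated for 1 h at 25 °C with 200 nM protein in PBS, 2% BSA, salmon testes DNA and 50 µM zinc acetate. The proteins were transcription factors fused at the N-terminus to polyhistidine and DsRed, expressed in E. coli BL21-CodonPlus and purified on Ni–NTA.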
row,Sequence,binding signal
1,CGTCTCGTTTCTCATCTCAAAATTTCGCGCCTCGTCGCCGCGGAGTCACCTAGTGCAG,8640 fluorescence intensity (a.u.)
2,AGAATCTTCTTCGTTCGTTCCTCGAACCTCAGATGCATGCCGGAGTCACCTAGTGCAG,8880 fluorescence intensity (a.u.)
3,ACTCCTGTTTGTGCAGGTTCTCCATGCATTTCTACTGTAACGGAGTCACCTAGTGCAG,10000 fluorescence intensity (a.u.)
4,TTCGCCGTCTCTTTTCCTTTCGCCGCTGCAAACCTCCGTCCGGAGTCACCTAGTGCAG,10000 fluorescence intensity (a.u.)
5,TTGGGTTTTTTTATCGTAAATTATTTTTCAGATTGTGCTTCGGAGTCACCTAGTGCAG,8420 fluorescence intensity (a.u.)
6,TTATTCATACATGTCACTGCCAGGCTGCTGTCTACTTCTTCGGAGTCACCTAGTGCAG,9530 fluorescence intensity (a.u.)
7,GTTTGTCAGTGACTTCTGCATGTGGCTGTGTTGTGCGACTCGGAGTCACCTAGTGCAG,9380 fluorescence intensity (a.u.)
8,TTATCAAATTCCGATCAAATCATTCCTCGTCGGCGTCCATCGGAGTCACCTAGTGCAG,8880 fluorescence intensity (a.u.)
9,GTTGGTTCAATGTGTATTCTTTCATTCTTGCACATATGCACGGAGTCACCTAGTGCAG,8390 fluorescence intensity (a.u.)
10,TCATTTGATTTATTGTTAAATATATTTTTATGTATACATACGGAGTCACCTAGTGCAG,8550 fluorescence intensity (a.u.)
11,GTAGGTTGGGGATGGGATGAGATGTGCAATCCCGGGAGAACGGAGTCACCTAGTGCAG,9000 fluorescence intensity (a.u.)
12,CCACATATTACGGGACTATTTTCATCTGCTTTTTATTTATCGGAGTCACCTAGTGCAG,10800 fluorescence intensity (a.u.)
13,ATCCAATCCCATCCATCCATCGCCTTCGCCTTCGTCGGGCCGGAGTCACCTAGTGCAG,10900 fluorescence intensity (a.u.)
14,CCCTCTCGTCGACCATGAAAATTTTCCTTGTTGCCTGGTGCGGAGTCACCTAGTGCAG,8780 fluorescence intensity (a.u.)
15,CTAAATCCTCGGGTCCACATGTCATACTCAGCCTCTTTACCGGAGTCACCTAGTGCAG,11400 fluorescence intensity (a.u.)
16,TGTTATGCAAATGTGCAAATGCAAAAGTTGGCCGCAAGAACGGAGTCACCTAGTGCAG,17600 fluorescence intensity (a.u.)
17,AAGTTCAGATGATGTTGCGAGGGTCCATTTTCAGCTTATACGGAGTCACCTAGTGCAG,8510 fluorescence intensity (a.u.)
18,GGGGCGTTGGAGGTTTTGCTGCATGGCAGGCGCGTAATTTCGGAGTCACCTAGTGCAG,9720 fluorescence intensity (a.u.)
19,GCCCACATGTCAGCCACACGCCACCTCGCACGTGCGTCACCGGAGTCACCTAGTGCAG,8830 fluorescence intensity (a.u.)
20,CCTCCATCATGAGCTCCAATTAGCCGCACACCGATCCCCTCGGAGTCACCTAGTGCAG,8300 fluorescence intensity (a.u.)
21,ACAGACCCGGAGGATTTTGATTAGTTCGTTTCCGCAGCCTCGGAGTCACCTAGTGCAG,9430 fluorescence intensity (a.u.)
22,CCTCTATTACCGCCTGTCATCTGGGCCCACGCTAATACCGCGGAGTCACCTAGTGCAG,13800 fluorescence intensity (a.u.)
23,CTTGGACATCACCTGCGTGTTTCGAATCAGCTCCGTCATGCGGAGTCACCTAGTGCAG,8570 fluorescence intensity (a.u.)
24,CCTACTAGTTTCTTTCTTGTGTTCTTTGGAATTTTTTTGACGGAGTCACCTAGTGCAG,8200 fluorescence intensity (a.u.)
25,GCCACTCCTGACGTCAGCGTTGACTCGGTCAAACCCATCGCGGAGTCACCTAGTGCAG,19300 fluorescence intensity (a.u.)
26,ATGTTCAGTAGTTAAAGAGGATACTGGCCACATGCTTGACCGGAGTCACCTAGTGCAG,8790 fluorescence intensity (a.u.)
27,ACCGCTGTATACCCTCGAGCCCCGACAATGGAGATTTTTTCGGAGTCACCTAGTGCAG,9380 fluorescence intensity (a.u.)

row,Sequence,binding signal
1,GTACACCGTCTTGTCGATCACGACCAAACCCCGGCCGCCTCGGAGTCACCTAGTGCAG,8090 fluorescence intensity (a.u.)
2,CATCCTCTTTATTTGGATCTTGTGTTTGATGTGATGATGTCGGAGTCACCTAGTGCAG,8540 fluorescence intensity (a.u.)
3,GTATTCTGATCATGCGGCTATCCTAGTACTCTCGAGCACCCGGAGTCACCTAGTGCAG,8130 fluorescence intensity (a.u.)
4,CACTGATCACTTCATCCCATTAGCCATTAGCTGTTTCTCACGGAGTCACCTAGTGCAG,8430 fluorescence intensity (a.u.)
5,GTCGTCAACAGGGAGGGAGGGGAGAAGAACCGGTGATGGACGGAGTCACCTAGTGCAG,8540 fluorescence intensity (a.u.)
6,GTCTCTTCTCTTCTTCACTCCACTCCACTCCACTCCACTCCGGAGTCACCTAGTGCAG,8360 fluorescence intensity (a.u.)
7,CTTTTGTGCCCTTGCTATACTTTCTAAAGCCTTGTACGTTCGGAGTCACCTAGTGCAG,12000 fluorescence intensity (a.u.)
8,ATCACATCCACCCAAACTATCGCCCTCTGTCTCTCTCCCACGGAGTCACCTAGTGCAG,9090 fluorescence intensity (a.u.)
9,GAGTTTTTACTTGTAACGTTTAACCACTCGTCTTATTCAACGGAGTCACCTAGTGCAG,8380 fluorescence intensity (a.u.)
10,TTGTATGAACTGTTTATCTTTTGCTCTGTTTATGTGGACCCGGAGTCACCTAGTGCAG,9170 fluorescence intensity (a.u.)
11,TTGGATTTGGGATTCTTCTCTTTCGTTTTCGTGTGTTTTTCGGAGTCACCTAGTGCAG,8770 fluorescence intensity (a.u.)
12,TGTAGTAATTGGGTATCTTCATCATTTGTCCTAAAAAAGTCGGAGTCACCTAGTGCAG,8080 fluorescence intensity (a.u.)
13,ATTTCAGCTCGAGCTGCCGCCACAGTTGTTGTTTGCGATGCGGAGTCACCTAGTGCAG,9830 fluorescence intensity (a.u.)
14,TTTTTTCTGTTTGTCCTCCATATATGTCAGCTCTAAAAATCGGAGTCACCTAGTGCAG,9300 fluorescence intensity (a.u.)
15,ATTACTCCATCCGTCCCCTGATATAAGAGGTTTTAATATTCGGAGTCACCTAGTGCAG,10700 fluorescence intensity (a.u.)
16,GGATTAATTAGGCAAAAAACCGTTGACTCAGTCATCACACCGGAGTCACCTAGTGCAG,9280 fluorescence intensity (a.u.)
17,CAGGTCAAACTCACACGCTGGCCCAGTTGCTCAGTTAACTCGGAGTCACCTAGTGCAG,8280 fluorescence intensity (a.u.)
18,TGGCTACTAGTTCTCTCTTCAACCTTGTTTATCTTATCTACGGAGTCACCTAGTGCAG,12800 fluorescence intensity (a.u.)
19,AATTCCTTCGTCGGCAGCGTGCATTCCTTGGTCTATCCTTCGGAGTCACCTAGTGCAG,9550 fluorescence intensity (a.u.)
20,CTGGACCGTCCTGCTGTCGCCGTTGACCTCACCGCTGCCGCGGAGTCACCTAGTGCAG,14100 fluorescence intensity (a.u.)
21,GTGGGGAGGGGCGCGCAGGGGTAGCCCGGCAGTGAGCATTCGGAGTCACCTAGTGCAG,9630 fluorescence intensity (a.u.)
22,TTGGTCTCTTTAATGTTTTCTACGTGGACCCTGCATATTACGGAGTCACCTAGTGCAG,9900 fluorescence intensity (a.u.)
23,CACTCGCTCGCCACACACCATCACCCATGCGCGCTAATTACGGAGTCACCTAGTGCAG,10900 fluorescence intensity (a.u.)
24,ACTCTTTCCGTCTGTTGATTTCGTGAAAAGTTTCCTTAGACGGAGTCACCTAGTGCAG,10600 fluorescence intensity (a.u.)
25,ATCCGCGGCCTTTGTCATTGTTTCTTTATTCTCGAGTCGTCGGAGTCACCTAGTGCAG,10000 fluorescence intensity (a.u.)
26,TGTCAATGTTTTAGGTTCTCATAGTAAATACTAACATCCTCGGAGTCACCTAGTGCAG,8020 fluorescence intensity (a.u.)
27,TTATAAATTTAGCTAGGTATTAGGTCCATGGTAATACTGACGGAGTCACCTAGTGCAG,8240 fluorescence intensity (a.u.)

# Random excerpt: five entries already listed, in no set order.
row,Sequence,binding signal
6,GTCTCTTCTCTTCTTCACTCCACTCCACTCCACTCCACTCCGGAGTCACCTAGTGCAG,8360 fluorescence intensity (a.u.)
25,ATCCGCGGCCTTTGTCATTGTTTCTTTATTCTCGAGTCGTCGGAGTCACCTAGTGCAG,10000 fluorescence intensity (a.u.)
26,TGTCAATGTTTTAGGTTCTCATAGTAAATACTAACATCCTCGGAGTCACCTAGTGCAG,8020 fluorescence intensity (a.u.)
12,TGTAGTAATTGGGTATCTTCATCATTTGTCCTAAAAAAGTCGGAGTCACCTAGTGCAG,8080 fluorescence intensity (a.u.)
15,ATTACTCCATCCGTCCCCTGATATAAGAGGTTTTAATATTCGGAGTCACCTAGTGCAG,10700 fluorescence intensity (a.u.)
